Source: the supplement of paper PMC12823440, “Inhibitors supercharge kinase turnover through native proteolytic circuits” (Nature, 2025)
Structures can show the parent of a compound that is named as a salt. The list shows a part of the results. Hit calls seldom repeat between salt and free forms of one compound.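 Kinases, fused to nanoluciferase, were expressed in K562 cells; luminescence was measured every 4 h from 2 to 18 h as percent of control (DMSO = 100%, positive control = 0%). A time point is decreased if signal falls significantly (2 sigma). Hits were called by the authors by a rule that is not shown; the count of time points alone does not decide it.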

By UniProt entry, the sequences of proteins in these tests, tags left out. Where a name states a change or a piece, a line headed by the entry shows the natural chain unless it says otherwise.
UniProt Q9Y616: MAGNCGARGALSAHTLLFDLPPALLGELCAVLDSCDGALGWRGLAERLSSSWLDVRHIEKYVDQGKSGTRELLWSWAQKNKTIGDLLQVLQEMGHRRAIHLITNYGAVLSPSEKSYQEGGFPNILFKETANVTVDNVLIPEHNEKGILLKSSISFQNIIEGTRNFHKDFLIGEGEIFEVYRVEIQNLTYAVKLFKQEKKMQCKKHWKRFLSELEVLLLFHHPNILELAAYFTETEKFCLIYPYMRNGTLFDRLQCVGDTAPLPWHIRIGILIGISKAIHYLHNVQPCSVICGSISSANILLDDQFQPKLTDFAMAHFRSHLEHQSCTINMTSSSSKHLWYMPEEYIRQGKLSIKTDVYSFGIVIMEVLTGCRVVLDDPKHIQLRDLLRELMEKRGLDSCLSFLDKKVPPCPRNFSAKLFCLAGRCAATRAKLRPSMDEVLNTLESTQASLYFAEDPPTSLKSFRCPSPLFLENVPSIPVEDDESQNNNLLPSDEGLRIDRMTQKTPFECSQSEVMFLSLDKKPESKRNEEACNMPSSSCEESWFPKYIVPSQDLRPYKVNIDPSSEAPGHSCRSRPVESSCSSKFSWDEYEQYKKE

Each compound was assayed against IRAK3 (UniProt Q9Y616) (assay: kinase-Nluc reporter destabilization hit call (1 = scored as downregulated) (binary); higher = compound decreases kinase abundance). Settings: K562; 2-18 h.

kinase-Nluc reporter destabilization hit call, inactive:
Cn1cc(Nc2nccc(N3C[C@H]4CC[C@@H](C3)N4C(=O)[C@@H]3CC3(F)F)n2)cn1 (10 µM) 0
CC(C)=CC(=O)CCC(=O)N1CCN(Cc2cc3nc(-c4cccc5[nH]ncc45)nc(N4CCOCC4)c3s2)CC1 (10 µM) 0
CN(C)CCN(Cc1ccc(Cl)cc1)c1ccccn1 [Chloropyramine hydrochloride] (10 µM) 0
COc1cc([N+](=O)[O-])ccc1S(=O)(=O)N1C[C@@H](CN2CCN(c3ccccn3)CC2)[C@H](c2cccc(F)c2)C1 (relative stereo) (10 µM) 0
Cc1noc(C)c1-c1ccc(-c2cc(C(N)=O)c(NC(N)=O)s2)c(O[C@H]2CCNC2)c1 (10 µM) 0
CC(C)(C)NC(=O)c1cncn1C1CCN(c2ccc(-c3nnc(C(F)(F)F)o3)cn2)CC1 (10 µM) 0
COc1cccc(-n2c(=O)[nH]c3cc(Cl)n(-c4ccc(-c5cccc(OC)c5O)cc4)c3c2=O)c1 (2.5 µM) 0
O=C(Nc1cccnc1)c1cc(C(=O)c2c(F)cccc2Br)c[nH]1 (10 µM) 0
O=C(Nc1cc(Oc2cc(F)c(NC(=O)C3(C(=O)Nc4ccc(F)cc4)CC3)cc2F)ccn1)C1CC1 [Altiratinib] (10 µM) 0
O=C1NC(=O)C(=Cc2ccc(-c3ccc(F)cc3)o2)S1 (stereo in doubt) (10 µM) 0
O=C(NC(NC(=S)Nc1ccc(F)c([N+](=O)[O-])c1)C(Cl)(Cl)Cl)C(c1ccccc1)c1ccccc1 (stereo unspecified) (10 µM) 0
Nc1ncnc2c1ncn2[C@@H]1O[C@H](CO)C[C@H]1O [Cordycepin] (10 µM) 0
CC(C)(NS(=O)(=O)c1ccc2c(Cl)cnc(N=C(N)N)c2c1)C(=O)O (10 µM) 0
COc1cc2ncnc(Nc3cccc(Cl)c3)c2cc1OC (10 µM) 0
CCOc1ccc(C(=O)Nc2ncc([N+](=O)[O-])s2)cc1 (10 µM) 0
CC(C)CN[C@H]1CS(=O)(=O)C[C@@H]1S(=O)(=O)c1ccc(Cl)cc1 (10 µM) 0
CCn1c(=O)c(-c2ccc(-c3cncs3)cc2Cl)cc2cnc(Nc3ccc(N4CCN(C)CC4)cc3)nc21 (2.5 µM) 0
C[C@]1(O)CCC[C@@H]1n1c(=O)c(C(F)F)cc2cnc(NC3CCN(S(C)(=O)=O)CC3)nc21 (10 µM) 0
COc1c(NC(=O)C(=O)c2ccc(OCCN3CCOCC3)c3ccccc23)cc(C(C)(C)C)cc1NS(C)(=O)=O (2.5 µM) 0
COc1cc(S(C)(=O)=O)ccc1Nc1nc2ccc(-c3ccc(NC(=O)[C@H](C)c4ccc(F)cc4)cc3)cn2n1 [Empesertib] (10 µM) 0
Nc1cc(Nc2ccc(S(N)(=O)=O)cc2)ncn1 (10 µM) 0
O=C(O)c1cc(O)ccc1O [2,5-Dihydroxybenzoic acid] (10 µM) 0
OCCNC1CCCc2c1[nH]c1ccc(-c3ccccc3)cc21 (stereo unspecified) (2.5 µM) 0
CC(C)CC1(O)CCN(C(=O)c2ccc(NS(=O)(=O)c3cccc4nccnc34)cc2)CC1 (10 µM) 0
CNC(=O)c1ccc(-c2cnc3cnc(C(=O)N(C)c4ccc(Cl)cc4)cn23)cc1 (2.5 µM) 0
Cc1cc(Nc2cc(Cl)nc(Oc3ccc([N+](=O)[O-])cc3)n2)n[nH]1 [Autophinib] (2.5 µM) 0
CN1CCN(c2ccc(Nc3ncc4nc(Nc5ccccc5)n([C@@H]5CCN(S(=O)(=O)C6CC6)C5)c4n3)cc2)CC1 (2.5 µM) 0
Cc1c(CN2CCN(S(C)(=O)=O)CC2)sc2c(N3CCOCC3)nc(-c3cnc(N)nc3)nc12 (2.5 µM) 0
O=C(NCCCNc1nc(Nc2cccc(NC(=O)N3CCCC3)c2)ncc1I)c1cccs1 (2.5 µM) 0
O=C(/C=C/c1ccc(O[C@@H]2O[C@H](CO)[C@@H](O)[C@H](O)[C@H]2O[C@@H]2OC[C@](O)(CO)[C@H]2O)cc1)c1ccc(O)cc1O [Isoliquiritin apioside] (10 µM) 0
O=C1NC(=O)/C(=C/c2ccc3c(c2)OC(F)(F)O3)S1 (10 µM) 0

Sorted by SMILES length (largest number first): some entries from above.
kinase-Nluc reporter destabilization hit call, inactive:
CC(C)(C)NC(=O)c1cncn1C1CCN(c2ccc(-c3nnc(C(F)(F)F)o3)cn2)CC1 (10 µM) 0
CC(C)CC1(O)CCN(C(=O)c2ccc(NS(=O)(=O)c3cccc4nccnc34)cc2)CC1 (10 µM) 0
OCCNC1CCCc2c1[nH]c1ccc(-c3ccccc3)cc21 (stereo unspecified) (2.5 µM) 0
